Results published in US11965041B2, “N-methylated cyclic peptides and their prodrugs” (TECHNISCHE UNIVERSITAET MUENCHEN, priority 2017, dated 2024).
“Also recorded” adds a separate entry of the source. The name of at least one read-out is uncertain. Some entries repeat one wording, which the source may state once for all of them.

System: Caco-2 cells
Test: Caco-2 permeability study (Examples 1, 2 and 4, Table 3)
Type: in vitro ADME, human

SMILES	Caco-2 intestinal permeability, in words
C[C@@H]1NC(=O)[C@H](C)N(C)C(=O)[C@H](C)NC(=O)[C@H](CC(=O)O)NC(=O)CNC(=O)[C@@H](CCCNC(=N)N)N(C)C1=O [Peptide 5, c(*rGDA*AA)]	significant lower permeability than their parent all Alanine-peptides
CC(C)[C@@H]1C(=O)N[C@@H](CCCNC(=N)N)C(=O)NCC(=O)N[C@@H](CC(=O)O)C(=O)N[C@@H](C)C(=O)N(C)[C@@H](C)C(=O)N1C [Peptide 29, c(*vRGDA*A)]	significant lower permeability than their parent all Alanine-peptides
C[C@@H]1NC(=O)[C@H](C)N(C)C(=O)[C@H](C)NC(=O)[C@H](CC(=O)O)N(C)C(=O)CNC(=O)[C@@H](CCCNC(=N)N)NC1=O [Peptide 17, c(rG*DA*AA)]	significant lower permeability than their parent all Alanine-peptides; also recorded: same pattern of intestinal permeability as peptides 12 and 12P
C[C@@H]1NC(=O)[C@H](CC(=O)O)NC(=O)CNC(=O)[C@@H](CCCNC(=N)N)NC(=O)[C@H](C)N(C)C(=O)[C@H](C)N(C)C1=O [Peptide 23, c(rGDA*A*A)]	significant lower permeability than their parent all Alanine-peptides; also recorded: same pattern of intestinal permeability as peptides 12 and 12P
C[C@@H]1NC(=O)[C@H](CC(=O)O)NC(=O)CNC(=O)[C@H](CCCNC(=N)N)NC(=O)[C@@H](C)N(C)C(=O)[C@H](C)N(C)C1=O [Peptide 12, c(*aRGDA*A)]	significant lower permeability than their parent all Alanine-peptides
C[C@@H]1NC(=O)[C@H](CC(=O)O)NC(=O)CNC(=O)[C@H](CCCNC(=N)N)NC(=O)[C@@H](Cc2ccccc2)N(C)C(=O)[C@H](C)N(C)C1=O [Peptide 30, c(*fRGDA*A)]	significant lower permeability than their parent all Alanine-peptides; also recorded: same pattern of intestinal permeability as peptides 12 and 12P
